Several values for one entry are separate records, joined by “and”; a condition that tells them apart may be missing. Equal entries are not always repeated. Some of the results follow. Each value is one well over the wells without odorant, computed here; the data are noisy.

This assay concerns pseudo clone 1419. In words: odorant receptor activation (CRE luciferase / Renilla) (fold of no-odor wells); higher = more activation. As to conditions: 100 µM.
As to `CS` [methanethiol], the odorant receptor activation amounted to 1.16.
To `CCC(C)=O` [2-butanone] belongs 0.967; to `CCOc1cc(C=O)ccc1O` [ethyl vanillin], 1.3 and 1.23; to `CCCCOC(C)=O` [butyl acetate], 0.334.

Source of the values: the odorant receptor screen of Mainland et al. (2015).
